This is one part of the list. Repeats are few or missing, and single values can be far off.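 Imaging used 1,536-well plates; nuclei positive for cleaved PARP by antibody were divided by total DNA-stained nuclei to yield the apoptosis fraction. Doses for screening kept most cells viable, and cell lines differ markedly in resting and induced cleaved-PARP levels.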
Legend:
Test in all cases: cleaved PARP positive nuclei fraction relative to DMSO control; melanoma cells; higher = more apoptosis
Conditions in all cases: library dose: low library concentration; 72 h
[1] = tested on: MeWo
[2] = tested on: RPMI7951
[3] = tested on: RVH-421
[4] = tested on: SkMel28
[5] = tested on: SkMel30
[6] = tested on: SkMel5
[7] = tested on: UACC257
[8] = tested on: UACC62
[9] = tested on: WM115
[10] = tested on: WM1716
[11] = tested on: WM1745
[12] = tested on: WM3526
[13] = tested on: WM3619
[14] = tested on: WM451Lu
[15] = tested on: SkMel2

Structure (SMILES) | cleaved PARP positive nuclei fraction [1] [%] | cleaved PARP positive nuclei fraction [2] [%] | cleaved PARP positive nuclei fraction [3] [%] | cleaved PARP positive nuclei fraction [4] [%] | cleaved PARP positive nuclei fraction [5] [%] | cleaved PARP positive nuclei fraction [6] [%] | cleaved PARP positive nuclei fraction [7] [%] | cleaved PARP positive nuclei fraction [8] [%] | cleaved PARP positive nuclei fraction [9] [%] | cleaved PARP positive nuclei fraction [10] [%] | cleaved PARP positive nuclei fraction [11] [%] | cleaved PARP positive nuclei fraction [12] [%] | cleaved PARP positive nuclei fraction [13] [%] | cleaved PARP positive nuclei fraction [14] [%] | cleaved PARP positive nuclei fraction [15] [%]
O=c1[nH]nc(Sc2ncc([N+](=O)[O-])s2)n1-c1ccc2c(c1)OCCO2 + C=CCn1c(=O)c2cnc(Nc3ccc(N4CCN(C)CC4)cc3)nc2n1-c1cccc(C(C)(C)O)n1 [MK1775] (first compound 0.2 µM, partner dose 0.02 µM) | 104 | 165 | 138 | 30.7 | 74.7 | 40 | 122 | 44.5 | 105 | 84.2 | 103 | 114 | 99.3 | 253 | 
CC[C@]1(O)C[C@H]2CN(CCc3c([nH]c4ccccc34)[C@@](C(=O)OC)(c3cc4c(cc3OC)N(C=O)[C@H]3[C@@](O)(C(=O)OC)[C@H](OC(C)=O)[C@]5(CC)C=CCN6CC[C@]43[C@@H]65)C2)C1 [vincristine] + Nc1cccc2c1CN(C1CCC(=O)NC1=O)C2=O [lenalidomide] (first compound 0.0001 µM, partner dose 1 µM) | 99.7 | 368 | 83.9 | 46.3 | 294 |  |  | 192 | 718 | 107 | 113 | 114 | 159 | 138 | 
O=c1[nH]nc(Sc2ncc([N+](=O)[O-])s2)n1-c1ccc2c(c1)OCCO2 + Cc1cc([N+](=O)[O-])ccc1NS(=O)(=O)c1cc(Cl)ccc1Cl [FH535] (first compound 0.2 µM, partner dose 1 µM) | 170 | 67.2 | 214 | 100 | 84.7 | 157 | 61 | 159 | 124 | 310 | 93.3 | 119 | 73.6 | 152 | 
COc1cc([C@@H]2c3cc4c(cc3[C@@H](O[C@@H]3O[C@@H]5CO[C@@H](C)O[C@H]5[C@H](O)[C@H]3O)[C@H]3COC(=O)[C@H]23)OCO4)cc(OC)c1O [etoposide] + Cc1cn(-c2cc(NC(=O)c3ccc(C)c(Nc4nccc(-c5cccnc5)n4)c3)cc(C(F)(F)F)c2)cn1 [nilotinib] (first compound 0.02 µM, partner dose 0.2 µM) | 90.1 |  | 221 | 123 | 67.9 |  |  | 70.9 | 85.5 | 98.1 | 115 | 255 | 104 | 98.7 | 
O=C(Nc1cc(C(F)(F)F)cc(C(F)(F)F)c1)c1cc(Cl)ccc1O + CCCCCCCCCCCC1=C(O)C(=O)C=C(O)C1=O [Embelin] (first compound 0.016 µM, partner dose 1.2 µM) | 40.7 | 66.1 | 84.9 | 35.8 | 174 | 159 | 267 | 107 | 114 | 218 | 90.1 | 49.4 | 90.8 | 244 | 
COc1cc([C@@H]2c3cc4c(cc3[C@@H](O[C@@H]3O[C@@H]5CO[C@@H](C)O[C@H]5[C@H](O)[C@H]3O)[C@H]3COC(=O)[C@H]23)OCO4)cc(OC)c1O [etoposide] + O=c1cc(-c2cccc3c2Sc2ccccc2S3)oc(N2CCOCC2)c1 [KU55933] (first compound 0.02 µM, partner dose 1 µM) | 138 | 92 | 76.1 | 99 | 628 | 76.8 | 113 | 86.4 | 156 | 118 | 101 | 59.9 | 109 | 34.6 | 
CCCCCCCCCCCCCCCCCCOP(=O)([O-])OC1CC[N+](C)(C)CC1 [Perifosine] + Cn1c(=O)n(-c2ccc(C(C)(C)C#N)cc2)c2c3cc(-c4cnc5ccccc5c4)ccc3ncc21 [NVP-BEZ235] (first compound 0.4 µM, partner dose 0.004 µM) | 57.7 | 98.5 | 105 | 45.1 | 79 |  |  | 27.1 | 163 | 35.1 | 87.7 | 70.8 | 108 | 47.4 | 89.6
N#CC[C@H](C1CCCC1)n1cc(-c2ncnc3[nH]ccc23)cn1 [ruxolitinib] + Cn1sc(=O)n(Cc2ccccc2)c1=O [TDZD-8] (first compound 1 µM, partner dose 0.4 µM) | 77 | 42 | 58.7 | 32.9 | 77.8 |  |  | 75.4 | 114 | 82.3 | 88.9 | 77.6 | 94.6 | 77.6 | 
N#CC[C@H](C1CCCC1)n1cc(-c2ncnc3[nH]ccc23)cn1 [ruxolitinib] + CCN(CC)CCNC(=O)c1c(C)[nH]c(/C=C2\C(=O)Nc3ccc(F)cc32)c1C [sunitinib] (first compound 1 µM, partner dose 0.4 µM) | 229 | 55.2 | 74.2 | 42 | 64 |  |  | 9.71 | 22 | 63 | 95.9 | 351 | 74.8 | 70.8 | 130
N#CC[C@H](C1CCCC1)n1cc(-c2ncnc3[nH]ccc23)cn1 [ruxolitinib] + NC1(c2ccc(-c3nc4ccn5c(=O)[nH]nc5c4cc3-c3ccccc3)cc2)CCC1 [MK2206] (first compound 1 µM, partner dose 0.4 µM) | 51.3 | 147 | 96.7 | 240 | 81.6 |  |  | 112 | 158 | 200 | 110 | 91.3 | 95.6 | 95.6 | 122
Cc1ccc(Nc2nccc(N(C)c3ccc4c(C)n(C)nc4c3)n2)cc1S(N)(=O)=O [Pazopanib] + CC(C)CCN1c2nc(Nc3cc(F)c(O)c(F)c3)ncc2N(C)C(=O)C1C [BID1870] (first compound 0.4 µM, partner dose 0.2 µM) | 27 | 153 | 74.4 | 230 | 184 | 83.6 | 192 | 71.9 | 50.9 | 117 | 94.3 | 152 | 108 | 37.2 | 
N#CC[C@H](C1CCCC1)n1cc(-c2ncnc3[nH]ccc23)cn1 [ruxolitinib] + c1cc(-c2cnn3cc(-c4ccc(OCCN5CCCCC5)cc4)cnc23)ccn1 [Dorsomorphin] (first compound 1 µM, partner dose 0.4 µM) | 78.6 | 252 | 112 | 155 | 81.5 | 85.1 | 73.9 | 142 | 39.8 | 231 | 101 | 48.3 | 82.6 | 105 | 
O=C(/C=C/c1cccnc1)NCCCCC1CCN(C(=O)c2ccccc2)CC1 + NCC(=O)Nc1ccc(-n2nc(C(F)(F)F)cc2-c2ccc3c(ccc4ccccc43)c2)cc1 [OSU03012] (first compound 0.01 µM, partner dose 1 µM) | 145 | 103 | 49.1 | 190 | 210 | 103 | 71.6 | 82.3 | 179 | 124 | 88.2 | 114 | 104 | 48.7 | 
O=C(/C=C/c1cccnc1)NCCCCC1CCN(C(=O)c2ccccc2)CC1 + C#Cc1cccc(Nc2ncnc3cc(OCCOC)c(OCCOC)cc23)c1 [erlotinib] (first compound 0.01 µM, partner dose 0.8 µM) | 181 | 144 | 150 | 84.6 | 66.7 |  |  | 226 | 56.3 | 489 | 122 | 76 | 95.9 | 84.5 | 1360
CCCCCCCCCCCCCCCCCCOP(=O)([O-])OC1CC[N+](C)(C)CC1 [Perifosine] + CO[C@H]1C[C@@H]2CC[C@@H](C)[C@@](O)(O2)C(=O)C(=O)N2CCCC[C@H]2C(=O)O[C@H]([C@H](C)C[C@@H]2CC[C@@H](OCCO)[C@H](OC)C2)CC(=O)[C@H](C)/C=C(\C)[C@@H](O)[C@@H](OC)C(=O)[C@H](C)C[C@H](C)/C=C/C=C/C=C/1C [everolimus] (first compound 0.4 µM, partner dose 0.02 µM) | 112 | 166 | 49.7 | 189 | 116 |  |  | 289 | 97 | 70 | 109 | 113 | 113 | 183 | 

Copied from the list.
cleaved PARP positive nuclei fraction [14] [%] with CCCCCCCCCCCCCCCCCCOP(=O)([O-])OC1CC[N+](C)(C)CC1 [Perifosine] + CO[C@H]1C[C@@H]2CC[C@@H](C)[C@@](O)(O2)C(=O)C(=O)N2CCCC[C@H]2C(=O)O[C@H]([C@H](C)C[C@@H]2CC[C@@H](OCCO)[C@H](OC)C2)CC(=O)[C@H](C)/C=C(\C)[C@@H](O)[C@@H](OC)C(=O)[C@H](C)C[C@H](C)/C=C/C=C/C=C/1C [everolimus] (first compound 0.4 µM, partner dose 0.02 µM) reads 183
cleaved PARP positive nuclei fraction [11] [%] with CC[C@]1(O)C[C@H]2CN(CCc3c([nH]c4ccccc34)[C@@](C(=O)OC)(c3cc4c(cc3OC)N(C=O)[C@H]3[C@@](O)(C(=O)OC)[C@H](OC(C)=O)[C@]5(CC)C=CCN6CC[C@]43[C@@H]65)C2)C1 [vincristine] + Nc1cccc2c1CN(C1CCC(=O)NC1=O)C2=O [lenalidomide] (first compound 0.0001 µM, partner dose 1 µM) reads 113
